No constants are given. Whether binding was seen depends on the method and setting. In cells and extracts the contact can be indirect. Some entries that bind do so weakly or less than the wild type. For some of these results: Sequences can lack the tags named with a protein.

Assay [1] addresses T1, FLAG-tagged USP19-ER-C506S (enzymatically inactive mutant of the ER-localized USP19 isoform) (human) (UniProt O94966).
T1 sequence: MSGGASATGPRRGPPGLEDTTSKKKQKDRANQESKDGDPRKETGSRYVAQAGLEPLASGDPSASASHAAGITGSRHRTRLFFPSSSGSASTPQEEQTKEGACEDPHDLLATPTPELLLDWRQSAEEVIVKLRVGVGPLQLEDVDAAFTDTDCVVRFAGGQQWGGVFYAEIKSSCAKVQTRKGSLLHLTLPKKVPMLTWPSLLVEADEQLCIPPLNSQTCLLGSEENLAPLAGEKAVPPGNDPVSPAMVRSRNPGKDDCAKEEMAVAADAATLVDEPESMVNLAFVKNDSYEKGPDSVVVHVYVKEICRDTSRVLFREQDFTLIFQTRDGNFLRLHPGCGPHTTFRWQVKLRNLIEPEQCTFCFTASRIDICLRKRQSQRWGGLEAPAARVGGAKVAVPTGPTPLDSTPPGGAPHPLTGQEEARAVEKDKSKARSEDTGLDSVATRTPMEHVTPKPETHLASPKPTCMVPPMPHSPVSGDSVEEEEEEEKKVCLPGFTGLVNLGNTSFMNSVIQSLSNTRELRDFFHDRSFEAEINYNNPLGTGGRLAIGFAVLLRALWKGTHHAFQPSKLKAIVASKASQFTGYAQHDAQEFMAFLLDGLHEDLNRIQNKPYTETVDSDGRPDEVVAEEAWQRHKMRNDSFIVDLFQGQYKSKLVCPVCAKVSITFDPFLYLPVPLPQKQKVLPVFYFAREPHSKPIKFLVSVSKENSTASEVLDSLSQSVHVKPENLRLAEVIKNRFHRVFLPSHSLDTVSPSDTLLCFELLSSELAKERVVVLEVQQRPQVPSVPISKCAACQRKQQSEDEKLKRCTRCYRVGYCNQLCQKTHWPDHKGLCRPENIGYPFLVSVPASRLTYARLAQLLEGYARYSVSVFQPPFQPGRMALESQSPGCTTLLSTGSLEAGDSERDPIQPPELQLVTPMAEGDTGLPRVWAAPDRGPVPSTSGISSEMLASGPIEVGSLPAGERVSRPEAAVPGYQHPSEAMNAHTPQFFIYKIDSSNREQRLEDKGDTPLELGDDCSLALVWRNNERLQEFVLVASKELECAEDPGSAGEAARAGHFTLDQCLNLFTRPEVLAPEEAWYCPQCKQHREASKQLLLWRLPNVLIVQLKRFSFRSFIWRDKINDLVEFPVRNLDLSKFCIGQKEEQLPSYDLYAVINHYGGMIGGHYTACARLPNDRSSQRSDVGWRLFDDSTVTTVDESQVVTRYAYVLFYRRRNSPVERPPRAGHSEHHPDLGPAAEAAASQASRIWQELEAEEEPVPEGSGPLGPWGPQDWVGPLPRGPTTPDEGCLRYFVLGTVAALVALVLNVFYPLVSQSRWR
Briefly: co-IP; HEK293T cells co-transfected with FLAG-tagged USP19 (ER or CY; wt or active-site mutant) and TβRI; lysate incubated with anti-Flag agarose beads 2 h at 4 °C, beads washed five times with TNE buffer; immunoblotting for TβRI.

Assay [2] addresses T2, FLAG-tagged USP19-ER-wt (endoplasmic reticulum-localized isoform of ubiquitin-specific protease 19) (human) (UniProt O94966).
T2 sequence: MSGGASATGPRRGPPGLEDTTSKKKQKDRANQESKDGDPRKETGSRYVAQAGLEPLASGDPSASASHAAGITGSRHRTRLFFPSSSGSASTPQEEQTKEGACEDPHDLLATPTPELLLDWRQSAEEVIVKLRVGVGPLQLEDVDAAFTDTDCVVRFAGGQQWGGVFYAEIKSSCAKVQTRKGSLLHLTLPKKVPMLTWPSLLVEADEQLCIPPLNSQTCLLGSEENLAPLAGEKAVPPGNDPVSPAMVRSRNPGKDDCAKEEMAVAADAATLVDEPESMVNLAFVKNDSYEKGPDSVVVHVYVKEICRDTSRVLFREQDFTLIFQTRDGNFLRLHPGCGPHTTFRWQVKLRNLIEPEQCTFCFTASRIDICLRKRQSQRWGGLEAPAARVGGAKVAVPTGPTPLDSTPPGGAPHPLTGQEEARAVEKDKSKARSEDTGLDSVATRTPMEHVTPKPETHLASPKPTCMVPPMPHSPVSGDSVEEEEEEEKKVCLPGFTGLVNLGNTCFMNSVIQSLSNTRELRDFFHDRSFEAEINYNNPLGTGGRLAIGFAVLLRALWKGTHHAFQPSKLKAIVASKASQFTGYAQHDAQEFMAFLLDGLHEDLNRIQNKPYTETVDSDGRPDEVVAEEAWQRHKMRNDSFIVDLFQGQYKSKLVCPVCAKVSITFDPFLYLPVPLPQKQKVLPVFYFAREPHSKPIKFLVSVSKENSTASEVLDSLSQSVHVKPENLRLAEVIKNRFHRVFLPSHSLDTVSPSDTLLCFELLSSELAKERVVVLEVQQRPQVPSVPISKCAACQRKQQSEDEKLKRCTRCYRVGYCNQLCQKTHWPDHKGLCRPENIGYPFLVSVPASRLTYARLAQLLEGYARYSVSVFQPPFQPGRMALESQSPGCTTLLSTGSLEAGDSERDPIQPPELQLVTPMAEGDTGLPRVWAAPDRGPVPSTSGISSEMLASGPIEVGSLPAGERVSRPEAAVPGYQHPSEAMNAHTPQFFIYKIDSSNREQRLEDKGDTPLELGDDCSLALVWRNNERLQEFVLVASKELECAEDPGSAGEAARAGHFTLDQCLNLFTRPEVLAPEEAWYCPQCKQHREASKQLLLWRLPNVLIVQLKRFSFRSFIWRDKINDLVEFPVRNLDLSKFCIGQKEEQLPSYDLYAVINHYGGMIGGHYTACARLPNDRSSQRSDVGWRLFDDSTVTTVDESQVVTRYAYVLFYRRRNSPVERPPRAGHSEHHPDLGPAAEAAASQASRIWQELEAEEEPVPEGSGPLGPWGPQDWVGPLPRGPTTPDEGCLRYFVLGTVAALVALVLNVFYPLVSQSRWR
The description is as above.

The target in assay [3] is T3, USP19-ER-CS ectopically expressed in MDA-MB-231 cells (human) (UniProt O94966).
T3 sequence: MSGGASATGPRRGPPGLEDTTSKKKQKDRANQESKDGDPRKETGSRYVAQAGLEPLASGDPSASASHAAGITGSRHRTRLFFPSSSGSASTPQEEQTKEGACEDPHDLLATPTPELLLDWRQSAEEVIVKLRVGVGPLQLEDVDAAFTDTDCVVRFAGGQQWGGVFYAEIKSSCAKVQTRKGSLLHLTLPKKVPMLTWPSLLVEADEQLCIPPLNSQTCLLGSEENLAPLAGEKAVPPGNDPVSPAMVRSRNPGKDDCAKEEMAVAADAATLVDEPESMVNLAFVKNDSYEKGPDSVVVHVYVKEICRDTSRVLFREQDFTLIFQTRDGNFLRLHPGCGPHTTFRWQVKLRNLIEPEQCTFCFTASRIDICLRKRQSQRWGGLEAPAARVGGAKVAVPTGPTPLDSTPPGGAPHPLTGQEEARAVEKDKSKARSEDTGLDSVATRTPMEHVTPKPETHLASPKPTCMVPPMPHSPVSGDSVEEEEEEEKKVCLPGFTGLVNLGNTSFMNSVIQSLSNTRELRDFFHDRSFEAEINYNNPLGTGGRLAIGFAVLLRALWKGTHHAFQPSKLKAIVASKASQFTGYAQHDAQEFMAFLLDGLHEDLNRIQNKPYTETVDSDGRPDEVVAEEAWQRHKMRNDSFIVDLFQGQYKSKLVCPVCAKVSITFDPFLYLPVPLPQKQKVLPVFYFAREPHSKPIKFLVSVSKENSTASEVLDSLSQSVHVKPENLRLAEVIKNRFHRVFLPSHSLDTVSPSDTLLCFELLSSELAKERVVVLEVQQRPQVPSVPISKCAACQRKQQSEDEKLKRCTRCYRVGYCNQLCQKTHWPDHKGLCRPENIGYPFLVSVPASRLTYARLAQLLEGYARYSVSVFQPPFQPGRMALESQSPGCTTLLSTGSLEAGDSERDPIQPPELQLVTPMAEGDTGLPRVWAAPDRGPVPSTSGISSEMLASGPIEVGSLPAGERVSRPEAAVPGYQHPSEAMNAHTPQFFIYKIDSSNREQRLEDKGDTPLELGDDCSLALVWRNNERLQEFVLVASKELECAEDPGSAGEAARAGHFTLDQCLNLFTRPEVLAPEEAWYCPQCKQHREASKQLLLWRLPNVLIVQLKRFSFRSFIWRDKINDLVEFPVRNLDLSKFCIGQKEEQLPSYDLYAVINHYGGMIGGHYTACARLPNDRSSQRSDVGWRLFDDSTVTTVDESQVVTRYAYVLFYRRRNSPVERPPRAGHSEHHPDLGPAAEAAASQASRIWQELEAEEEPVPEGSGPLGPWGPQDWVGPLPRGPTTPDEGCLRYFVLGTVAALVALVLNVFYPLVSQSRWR
Briefly: co-IP; MDA-MB-231 cells ectopically expressing USP19-ER-wt or USP19-ER-CS; endogenous TβRI (Supplementary Fig. S6A).

Assay [4] addresses T4, USP19-ER-wt ectopically expressed in MDA-MB-231 cells (human) (UniProt O94966).
T4 sequence: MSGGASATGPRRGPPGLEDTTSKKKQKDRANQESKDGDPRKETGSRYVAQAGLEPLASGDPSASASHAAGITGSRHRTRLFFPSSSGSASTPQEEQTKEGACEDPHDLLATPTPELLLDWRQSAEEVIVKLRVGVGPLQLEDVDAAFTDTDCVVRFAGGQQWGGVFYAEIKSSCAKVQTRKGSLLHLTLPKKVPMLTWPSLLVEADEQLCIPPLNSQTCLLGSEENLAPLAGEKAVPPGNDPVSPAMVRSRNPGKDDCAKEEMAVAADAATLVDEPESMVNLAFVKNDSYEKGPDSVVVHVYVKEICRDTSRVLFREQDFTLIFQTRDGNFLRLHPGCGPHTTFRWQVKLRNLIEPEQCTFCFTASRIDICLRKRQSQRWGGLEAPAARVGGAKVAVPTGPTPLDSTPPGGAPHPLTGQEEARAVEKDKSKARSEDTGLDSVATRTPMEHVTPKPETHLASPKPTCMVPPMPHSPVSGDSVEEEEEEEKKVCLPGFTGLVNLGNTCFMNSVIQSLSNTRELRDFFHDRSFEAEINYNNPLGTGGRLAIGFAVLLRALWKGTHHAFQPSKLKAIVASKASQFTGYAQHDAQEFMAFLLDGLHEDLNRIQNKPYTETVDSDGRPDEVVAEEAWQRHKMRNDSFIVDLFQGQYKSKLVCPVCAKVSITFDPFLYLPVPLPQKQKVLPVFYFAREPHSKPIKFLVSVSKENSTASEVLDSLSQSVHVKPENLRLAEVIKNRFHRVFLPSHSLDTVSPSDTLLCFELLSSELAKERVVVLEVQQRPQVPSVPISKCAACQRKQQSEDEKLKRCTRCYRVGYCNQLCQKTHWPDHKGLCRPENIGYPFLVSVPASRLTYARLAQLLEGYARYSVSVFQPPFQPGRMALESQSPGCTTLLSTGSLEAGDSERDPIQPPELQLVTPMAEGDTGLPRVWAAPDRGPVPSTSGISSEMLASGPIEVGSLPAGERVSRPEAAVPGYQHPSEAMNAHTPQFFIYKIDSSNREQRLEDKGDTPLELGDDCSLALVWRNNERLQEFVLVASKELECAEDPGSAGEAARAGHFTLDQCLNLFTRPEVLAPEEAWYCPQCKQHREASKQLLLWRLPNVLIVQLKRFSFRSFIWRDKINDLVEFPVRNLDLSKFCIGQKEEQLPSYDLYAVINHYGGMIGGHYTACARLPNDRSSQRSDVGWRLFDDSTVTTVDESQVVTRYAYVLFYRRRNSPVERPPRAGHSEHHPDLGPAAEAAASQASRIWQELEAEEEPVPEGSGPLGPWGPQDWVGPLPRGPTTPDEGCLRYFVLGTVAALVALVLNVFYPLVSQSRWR
The assay is described as above.

B1: HA-tagged TGF-β type I receptor (TβRI) (receptor, UniProt P36897 34-503)
chain: LQCFCHLCTKDNFTCVTDGLCFVSVTETTDKVIHNSMCIAEIDLIPRDRPFVCAPSSKTGSVTTTYCCNQDHCNKIELPTTVKSSPGLGPVELAAVIAGPVCFVCISLMLMVYICHNRTVIHHRVPNEEDPSLDRPFISEGTTLKDLIYDMTTSGSGSGLPLLVQRTIARTIVLQESIGKGRFGEVWRGKWRGEEVAVKIFSSREERSWFREAEIYQTVMLRHENILGFIAADNKDNGTWTQLWLVSDYHEHGSLFDYLNRYTVTVEGMIKLALSTASGLAHLHMEIVGTQGKPAIAHRDLKSKNILVKKNGTCCIADLGLAVRHDSATDTIDIAPNHRVGTKRYMAPEVLDDSINMKHFESFKRADIYAMGLVFWEIARRCSIGGIHEDYQLPYYDLVPSDPSVEEMRKVVCEQKLRPNIPNRWQSCEALRVMAKIMRECWYANGAARLTALRIKKTLSQLSQQEGIKM
Regarding B1, the binding entry in assay [1] and in assay [2] was “binds” throughout.

B2: endogenous TGF-β type I receptor (TβRI) of MDA-MB-231 cells (receptor, UniProt P36897 34-503)
chain: LQCFCHLCTKDNFTCVTDGLCFVSVTETTDKVIHNSMCIAEIDLIPRDRPFVCAPSSKTGSVTTTYCCNQDHCNKIELPTTVKSSPGLGPVELAAVIAGPVCFVCISLMLMVYICHNRTVIHHRVPNEEDPSLDRPFISEGTTLKDLIYDMTTSGSGSGLPLLVQRTIARTIVLQESIGKGRFGEVWRGKWRGEEVAVKIFSSREERSWFREAEIYQTVMLRHENILGFIAADNKDNGTWTQLWLVSDYHEHGSLFDYLNRYTVTVEGMIKLALSTASGLAHLHMEIVGTQGKPAIAHRDLKSKNILVKKNGTCCIADLGLAVRHDSATDTIDIAPNHRVGTKRYMAPEVLDDSINMKHFESFKRADIYAMGLVFWEIARRCSIGGIHEDYQLPYYDLVPSDPSVEEMRKVVCEQKLRPNIPNRWQSCEALRVMAKIMRECWYANGAARLTALRIKKTLSQLSQQEGIKM
With B2, the binding entry in assay [3] and in assay [4] was “binds” throughout.

The record behind these values is PMC9842591.
